Measurements reported in patent US7329644B2, “Preparation and use of cyclic and branched peptides and their labelled derivatives as therapeutic agents, cholecystokinin agonists or antagonists, and diagnostic agents to identify and locate tumours” (Bracco Imaging S.p.A., priority 2001, dated 2008).
At least one compound was matched to its structure with a doubt left. Where a SMILES comes first, the peptide text is derived from it. Bridges are numbered along the chain shown (N, C = ends). [ ]: non-standard residue; d: D form. Dap = NC[C@H](N)C(=O)O

Tested on: type A cholecystokinin receptor
Assay: Intracellular calcium response in myenteric neurones (confocal microscopy)
Type: cell-based
Details: perfusion for 60 seconds
Description: Biological tests have been carried out to confirm the activity of the cyclic compound of formula (IV), using neurone cells which express type A cholecystokinin receptor. […] Both these compounds should show a lower level of activity than the corresponding analogs containing the sulphate group on the tyrosine residue. The biological activity tests involved the use of myenteric neurones as receptor-expressing cells, and the use of a confocal microscope with a suitable software package to measure peptide activity. The tests were based on the following assumptions: • 1) myenteric neurones (of the intestinal wall) normally express type A CCK receptor • 2) binding between CCK and the receptor induces excitation of the cell (change in membrane potential), which can be recorded with electrophysiology studies • 3) the cell excitation is coupled to the passage of calcium from the outside to the inside of the cell through specific membrane channels • 4) if the calcium is rendered fluorescent (using calcium chelators which modify the emission wavelength if they are excited at a particular wavelength), the increased concentration of the intracellular calcium in response to a stimulus can be recorded • 5) confocal laser microscopy with the aid of specific software therefore enables these phenomena to be recorded, and the fluorescence to be converted into the intracellular calcium concentration.

For `CSCC[C@@H]1NC(=O)[C@H](Cc2c[nH]c3ccccc23)NC(=O)[C@@H](NC(=O)[C@H](CCSC)NC(=O)[C@H](Cc2ccc(O)cc2)NC(=O)[C@@H](N)CC(=O)O)CNC(=O)[C@H](CCCCN)NC(=O)[C@H](Cc2ccccc2)NC(=O)[C@H](CC(=O)O)NC1=O` [(IV)] (H-DYM[Dap]WMDFK; lactam 4-C), the intracellular calcium concentration was “induce an increase in the intracellular calcium concentration”.
